{"source": "PubChem BioAssay AID1259254 (NCATS, 2017)", "assay": "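Genome-wide screen for genes that prevent DNA re-replication in cancer cells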 (primary screen)", "cell system": "human HCT116 colorectal cancer cells", "reagents": "single siRNA against human genes", "timing": "3 days", "measurement": "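Imaged Hoechst DNA stain sorts each cell into a cycle phase by DNA amount; per plate, G2 fraction set to 0% for non-targeting and 100% for GMNN siRNA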", "direction": "G2 robust z-score and G2 cells, % of GMNN control: higher = more G2 cells, more excess DNA replication", "hit rule": "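An siRNA counts as active if its G2 robust z-score lies at least 5 MADs above the screen median; here such calls match roughly 38% of GMNN control or more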", "note": "In all, the deposit lists about 59,000 reagents; shown is an unselected part. Over the whole deposit, about 1,550 (2.6%) got an active call. 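G2 share is only a proxy for re-replication; each gene was hit by three separate siRNAs, and active genes were retested.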 A number with no mark means an inactive call. The numbers tell different reagents against one gene apart. Not all columns of the deposit are shown. Not given: the amount of reagent."}
{"Target gene": "RGN (GeneID 9104)", "reagent no.": 1, "G2 robust z-score": -0.153, "G2 cells, % of GMNN control": 1.89}
{"Target gene": "RGN (GeneID 9104)", "reagent no.": 2, "G2 robust z-score": 1.58, "G2 cells, % of GMNN control": 14.1}
{"Target gene": "RGN (GeneID 9104)", "reagent no.": 3, "G2 robust z-score": 3.63, "G2 cells, % of GMNN control": 28.5}
{"Target gene": "SEC14L4 (GeneID 284904)", "reagent no.": 1, "G2 robust z-score": -0.441, "G2 cells, % of GMNN control": -0.133}
{"Target gene": "SEC14L4 (GeneID 284904)", "reagent no.": 2, "G2 robust z-score": -0.713, "G2 cells, % of GMNN control": -2.05}
{"Target gene": "SEC14L4 (GeneID 284904)", "reagent no.": 3, "G2 robust z-score": 2.4, "G2 cells, % of GMNN control": 19.8}
{"Target gene": "SH3TC1 (GeneID 54436)", "reagent no.": 1, "G2 robust z-score": -0.738, "G2 cells, % of GMNN control": -2.23}
{"Target gene": "SH3TC1 (GeneID 54436)", "reagent no.": 2, "G2 robust z-score": -0.641, "G2 cells, % of GMNN control": -1.54}
{"Target gene": "SH3TC1 (GeneID 54436)", "reagent no.": 3, "G2 robust z-score": 1.74, "G2 cells, % of GMNN control": 15.2}
{"Target gene": "ADGB (GeneID 79747)", "reagent no.": 1, "G2 robust z-score": -0.798, "G2 cells, % of GMNN control": -2.65}
{"Target gene": "ADGB (GeneID 79747)", "reagent no.": 2, "G2 robust z-score": 0.169, "G2 cells, % of GMNN control": 4.16}
{"Target gene": "ADGB (GeneID 79747)", "reagent no.": 3, "G2 robust z-score": -0.388, "G2 cells, % of GMNN control": 0.236}
{"Target gene": "PHYKPL (GeneID 85007)", "reagent no.": 1, "G2 robust z-score": -0.589, "G2 cells, % of GMNN control": -1.17}
{"Target gene": "PHYKPL (GeneID 85007)", "reagent no.": 2, "G2 robust z-score": 0.921, "G2 cells, % of GMNN control": 9.45}
{"Target gene": "PHYKPL (GeneID 85007)", "reagent no.": 3, "G2 robust z-score": 2.57, "G2 cells, % of GMNN control": 21.1}
{"Target gene": "DRAM2 (GeneID 128338)", "reagent no.": 1, "G2 robust z-score": -0.46, "G2 cells, % of GMNN control": -0.269}
{"Target gene": "DRAM2 (GeneID 128338)", "reagent no.": 2, "G2 robust z-score": -0.66, "G2 cells, % of GMNN control": -1.68}
{"Target gene": "DRAM2 (GeneID 128338)", "reagent no.": 3, "G2 robust z-score": 0.247, "G2 cells, % of GMNN control": 4.7}

Copied from the listing for reference:
{"Target gene": "SH3TC1 (GeneID 54436)", "reagent no.": 1, "G2 robust z-score": -0.738, "G2 cells, % of GMNN control": -2.23}
{"Target gene": "SH3TC1 (GeneID 54436)", "reagent no.": 2, "G2 robust z-score": -0.641, "G2 cells, % of GMNN control": -1.54}
